Laboratory results from PubChem BioAssay AID2417 (National Center for Advancing Translational Sciences (NCATS), 2010).
Out of some 140,000 compounds screened, about 4,300 (3.1%) were called active. Inconclusive means that the source gave no clear call. Such entries were picked first, then a sample of the others.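 How the source made its calls: active means readout at or below -70, meaning at least 70% loss of cells showing the perinucleolar compartment, a nuclear body marking cancer cells; inconclusive means readout between -30 and a set limit; inactive means the rest.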

Assay: High Content Assay for Compounds that inhibit the Assembly of the Perinucleolar Compartment;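 further: plate controls were DMSO wells for no effect and camptothecin positive control wells for full effect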
Details: PC3M PTB-GFP, PNC prevalence imaging, 16 h; at 10 µM; stronger effect = lower value
Procedure, shortened: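 Compounds are pinned in duplicate onto adhered PC3M cells stably expressing GFP-tagged PTB and incubated 16 h at 37 C. Cells are then fixed, nuclei stained with Hoechst, and PNC-positive cells counted.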

| Compound | activity change (PNC), negative = inhibition |
| --- | --- |
| O=C(CCS(=O)(=O)c1ccc(Br)s1)N1CCc2ccccc21 | inconclusive: -38.7% |
| O=C1CC(N(Cc2ccco2)C(=O)Nc2ccc(F)cc2)C(=O)N1c1ccc(F)cc1 (stereo not drawn) | inactive: 14.9% |
| COP(=O)(OC)C(Nc1ccc(C)cc1)c1ccc([N+](=O)[O-])cc1 (stereo not drawn) | inactive: 3.45% |
| C=CCOc1cccc(/C=N/NC(=O)CN(c2cc(Cl)ccc2OC)S(=O)(=O)c2ccc(C)c([N+](=O)[O-])c2)c1 | inconclusive: -38% |
| CCOP(=O)(OCC)c1nc(-c2ccccc2)oc1NCc1ccccc1 | inconclusive: -67.7% |
| Cc1ccc(Cl)cc1N1CCN(c2cccc[n+]2C)CC1 | inconclusive: -30.2% |
| O=C(O)c1ccccc1CSc1nc2ccccc2o1 | inactive: 11.2% |
| COc1cc2c(cc1OC)-c1cc3ccc4c(c3c[n+]1CC2)OCO4 | inconclusive: -38.7% |
| CCOc1ccc(/C=C2/SC(=O)NC2=S)cc1 | inactive: -20.6% |
| CN(/N=C/c1cccnc1)C1=NS(=O)(=O)c2ccccc21 | inconclusive: -41.2% |
| COC(=O)C1C/C(=N\NS(=O)(=O)c2ccc(C)cc2)c2ccsc2C1 (stereo not drawn) | inconclusive: -31.4% |
| CCCCCNC(=O)c1ccccc1SC | inactive: -4.13% |
| O=C(Oc1ccc(N2C(=O)CCC2=O)cc1)c1ccccc1Cl | inconclusive: -37% |
| COc1cccc(C(c2sc3ncnn3c2O)N2CC(C)OC(C)C2)c1 (stereo not drawn) | inactive: 7.09% |
| Cn1c(=O)c2c(nc(CN3CCN(Cc4ccccc4)CC3)n2CCN2CCOCC2)n(C)c1=O | inconclusive: -53.4% |
| CCOc1ccc(NC(=O)COC(=O)c2c(OC)cccc2OC)cc1 | inconclusive: -43.8% |
| CCOc1ccc(CNC(=O)C(CC)n2nc(C)n3c(cc4occc43)c2=O)cc1OC (stereo not drawn) | active: -89.4% |
| O=C1c2ccccc2C(=O)N1Cc1ccc2c(c1)OCO2 | inactive: 3.64% |
| CC1CCCCN1C(=O)COC(=O)c1n[nH]c2ccccc12 (stereo not drawn) | inactive: -23.9% |
| Cc1nn(-c2ccccc2)c(Cl)c1CN(C(=O)CCl)c1cccc2ccccc12 | inactive: -16.7% |

| Compound | activity change (PNC), negative = inhibition |
| --- | --- |
| COc1ccccc1Cc1noc(COc2cccc(C)c2C)n1 | active: -135% |
| Cc1ccc(-c2nnc(Oc3cccc(C)c3)c3ccccc23)cc1 | inconclusive: -61.2% |
| O=C1c2cccc3c(N4CCCCC4)ccc(c23)C(=O)N1c1ccccn1 | inactive: 97% |
| CCCN(CCO)Cc1cccc(Br)c1 | inconclusive: -58.1% |
| Cc1ccc2nc(SCC(=O)NCc3ccco3)[nH]c2c1 | inactive: -17.1% |
| CCCCOc1ccc(C(=O)Nc2ccc(N3CCN(C(C)=O)CC3)cc2)cc1 | inconclusive: -54.1% |
| O=C(CCCC(=O)N(CC(=O)NC1CCCC1)Cc1ccc(F)cc1)Nc1ccccn1 | inconclusive: -40.4% |
| Cc1c(NC(=O)c2ccccc2NS(=O)(=O)c2ccc(Br)cc2)c(=O)n(-c2ccccc2)n1C | inconclusive: -53.2% |
| Clc1ccc(CNc2nc(CN3CCOCC3)nc3scc(-c4ccccc4)c23)cc1 | inactive: 24.7% |
| CC(C)C(=O)NC(NC(=S)NC1CCS(=O)(=O)C1)C(Cl)(Cl)Cl (stereo not drawn) | active: -100% |
| CN(C)CCCNC(=O)COc1ccc(Br)cc1Cl | active: -87.3% |
| CCOC(=O)c1c(C)[nH]c(NC(=O)Nc2c(C)n(C)n(-c3ccccc3)c2=O)c1C | inconclusive: -47.6% |
| CC1CCCCN1S(=O)(=O)c1ccc(C(=O)Nc2sccc2C(N)=O)cc1 (stereo not drawn) | inconclusive: -75.3% |
| Cc1ccc(NC(=O)CCNS(=O)(=O)c2ccc3c(c2)oc(=O)n3C)c(C)c1 | inactive: -12.2% |
| CCN(CC)c1nc2ccccc2nc1C(C#N)C(=O)NCCc1ccccc1 (stereo not drawn) | inconclusive: -58.6% |
| Cc1nn(CCC(N)=S)c2nc(-c3cccs3)cc(C(F)(F)F)c12 | inconclusive: -74.4% |
| CN(C)S(=O)(=O)c1cccc(NC(=O)CSc2nc3c(cc2C#N)C(=O)CC(C)(C)C3)c1 | inconclusive: -36.5% |
| O=C(NCCc1ccccc1)c1cc(-c2ccco2)on1 | inconclusive: -67.9% |
| CCCOc1ccc(C(=O)Nc2ccc(N3CCN(C(C)=O)CC3)cc2)cc1 | inconclusive: -34.2% |
| COCCNC(=O)CSc1nc(-c2ccccc2)cs1 | inactive: -13% |

| Compound | activity change (PNC), negative = inhibition |
| --- | --- |
| Cc1nc(SCC(=O)N2CCC(C(N)=O)CC2)n[nH]1 | inconclusive: -42.5% |
| Cc1ccc(CSc2nn3c(=O)c(C)nnc3s2)cc1 | inconclusive: -49.2% |
| COc1ccc(CNC(=O)CCOc2ccc(C(C)(C)C)cc2)cc1 | inconclusive: -64.9% |
| O=C(Cn1c(=O)n(CCCC(=O)NC2CCCC2)c(=O)c2ccccc21)NCCC1=CCCCC1 | inconclusive: -66.5% |
| COc1ccc(/C=C/c2ccncc2)cc1OC | active: -96.7% |
| O=C(NCC1(c2ccccc2)CCCC1)C(=O)NCC1(c2ccccc2)CCCC1 | inactive: -9.39% |
| Cc1nnc(SCC(=O)NCC2CCCO2)n1-c1ccccc1 (stereo not drawn) | active: -118% |
| O=S(=O)(NCC(Nc1ccc(Cl)cc1)c1ccccc1)c1ccc(Cl)cc1 (stereo not drawn) | inconclusive: -40.2% |
| COC(=O)c1ccccc1C(=O)N1CCOCCOCCOCC1 | inconclusive: -36% |
| O=C(NC1CCCC1)C1=COCCO1 | inconclusive: -35.8% |
| O=C(NNC(=S)Nc1cccc(C(F)(F)F)c1)c1ccc(Cl)cc1Cl | inactive: -1.03% |
| CC(c1nnc(SCC(=O)N2CC(=O)Nc3ccccc32)n1Cc1ccccc1)N(C)C (stereo not drawn) | inactive: -3.52% |
| COc1ccc(C2(O)CCN(CC(=O)Nc3nccs3)CC2)c(OC)c1 | inconclusive: -57.9% |
| Cc1nn(-c2ccccc2)c(C)c1/C=C/C(=O)OCC(=O)Nc1ncc(C(F)(F)F)cc1Cl | active: -113% |
| Cc1cc(C)cc(OCC(=O)NCc2nc(-c3ccccc3)no2)c1 | inconclusive: -41.1% |
| Cc1nnsc1SCCNC(=O)c1c(F)cccc1F | active: -81.5% |
| C=CCn1c(Cc2cccs2)nnc1SCC(=O)Nc1cccc(OC)c1 | inactive: -4.74% |
| O=C(CN1CCN(C(=O)c2c(F)cccc2F)CC1)Nc1ccccc1F | inconclusive: -43.9% |

Part of the list above in another layout.
Compound,"activity change (PNC), negative = inhibition"
O=C1CC(N(Cc2ccco2)C(=O)Nc2ccc(F)cc2)C(=O)N1c1ccc(F)cc1 (stereo not drawn),inactive: 14.9%
COP(=O)(OC)C(Nc1ccc(C)cc1)c1ccc([N+](=O)[O-])cc1 (stereo not drawn),inactive: 3.45%
